Source: US8889638B2, “Stimulus-triggered prodrugs” (The Regents of the University of California, priority 2010, dated 2014)
Some of these results come from one statement about several compounds together.

Amino acid sequences for entries named in this document (tags omitted). Residues count along the entry.
UniProt P39900, 106-263 limits assumed: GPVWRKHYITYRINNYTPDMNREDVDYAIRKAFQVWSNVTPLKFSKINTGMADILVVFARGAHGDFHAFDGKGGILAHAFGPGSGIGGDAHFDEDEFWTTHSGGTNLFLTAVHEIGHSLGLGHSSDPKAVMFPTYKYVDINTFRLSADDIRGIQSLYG
UniProt P14780, 107-444 limits assumed: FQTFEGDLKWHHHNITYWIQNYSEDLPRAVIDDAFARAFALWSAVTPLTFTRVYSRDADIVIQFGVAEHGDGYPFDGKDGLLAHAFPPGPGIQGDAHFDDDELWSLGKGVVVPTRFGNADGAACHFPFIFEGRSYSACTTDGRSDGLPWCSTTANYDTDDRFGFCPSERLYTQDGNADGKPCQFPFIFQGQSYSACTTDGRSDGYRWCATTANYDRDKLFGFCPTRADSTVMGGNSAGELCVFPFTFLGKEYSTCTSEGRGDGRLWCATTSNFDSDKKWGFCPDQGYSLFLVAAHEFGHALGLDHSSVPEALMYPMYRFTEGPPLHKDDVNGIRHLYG

Columns and labels:
[1] = biological target: MMP-12 (catalytic domain, human recombinant) (Homo sapiens, UniProt P39900); experiment: MMP-12 inhibition assay of boronic ester proinhibitors (IC50; activation with H2O2); format: biochemical; parameters: MMP-12 (catalytic domain, human, recombinant); purchased Enzo Life Sciences
Description: (§1) MMP-9 (catalytic domain, human, recombinant) and MMP-12 (catalytic domain, human, recombinant) were purchased from Enzo Life Sciences. The assays were carried out in 96-well plates using a Bio-Tek Flx 800 plate reader. IC50 values were obtained for proinhibitors B17 and B18 against MMP-9 and MMP-12. Serial dilutions of the compounds dissolved in DMSO were incubated at 37° C. for 30 minutes with 20 μL of the appropriate MMP (0.45 U/mL for MMP-9 and 0.35 U/mL for MMP-12) in MMP assay buffer (50 mM HEPES, 10 mM CaCl2, 0.10% Brij-35, pH 7.5), for a total volume of 99 pt. The reaction was initiated by the addition of 1 μL (400 μM) of the fluorescent substrate (Mca-Pro-Leu-Gly-Leu-Dpa-Ala-Arg-NH2 where Mca=(7-methoxycoumarin-4-yl)-acetyl and Dpa=N-3-(2,4-dinitrophenyl)-L-α-β-diaminopropionyl)) and kinetic activity was measured every minute for 20 min with excitation and emission wavelengths at 335 nm and 405 nm, respectively. Measurements were performed in duplicate. […]
(§2) In each well, 1 μL of proinhibitors B17 and B18 and the inhibitors 1,2-HOPO-2 and PY-2 in DMSO (1 mM for MMP-9 or 5 μM for MMP-12) were incubated for 1 h at 37° C. with 10 μL H2O2 (1 mM in HEPES buffer, pH 7.5) in MMP assay buffer for a total volume of 79 pt. […] Enzyme activity with inhibitor was calculated with respect to the control experiment (no inhibitor present). […]

[2] = biological target: T1, MMP-9 (catalytic domain, human, recombinant) (Homo sapiens, UniProt P14780); experiment: MMP-9 inhibition assay of boronic ester proinhibitors (IC50; activation with H2O2); format: biochemical
T1 construct: MMP-9 (catalytic domain, human, recombinant); purchased BIOMOL International
Description: as §1, §2

[3] = Cleavage of sulfonate ester PZBGs and proMMPi by H2O2 (UV-Vis, rate constant, HPLC); format: physicochemical; conditions: no rate constants determined
Description: Absorption spectra of compounds were taken on a Perkin-Elmer Lambda 25 UV-Visible Spectrophotometer. To a 1.0 mL solution at 0.05 mM concentration of each compound in HEPES buffer (50 mM, pH 7.5) was added H2O2 (10 μL, 0.09M in HEPES) and absorption spectra were monitored over time at room temperature. Hydrolytic stability was measured by monitoring each sample in HEPES buffer over a 24 hour time period.
The pseudo-first order rate constant was calculated following literature procedure. To a 1.0 mL solution of compounds PZBG-1a, PZBG-1b, PZBG-1e, PZBG-5a, and PZBG-5b in HEPES buffer at 50 μM was added H2O2 to final concentrations of 150 μM, 250 μM, 500 μM, 750 μM, and 900 μM. Spectra were monitored over 15-30 min at room temperature with at least 50 spectra recorded at every concentration. The change in absorption at 298 nm for PZBG-1a and PZBG-1b were monitored, while the change in absorption at 288 nm was recorded for PZBG-1e, and 310 nm for PZBG-5a and PZBG-5b. The rate constant (kobs) was found from the linear slope of ln [(A−AZBG)/(Ao−AZBG)] vs. time where AZBG is the absorbance of a 50 μM sample of the ZBG or full-length inhibitor and AO is the initial absorbance of PZBG-1a, PZBG-1b, PZBG-1e, PZBG-5a, and PZBG-5b. The rate of conversion was determined from the slope of the line of kobs vs. [H2O2]. […]

CC1(C)OB(c2ccc(COn3c(C(=O)NCc4ccc(-c5ccccc5)cc4)cccc3=O)cc2)OC1(C)C [Compound B17, N-([1,1′-biphenyl]-4-ylmethyl)-6-oxo-1-((4-(4,4,5,5-tetramethyl-1,3,2-dioxaborolan-2-yl)benzyl)oxy)-1,6-dihydropyridine-2-carboxamide]
fold less effective against MMP-12 than the activated counterpart [1]: > 100 fold | fold-increase of IC50 against MMP-9 over the active inhibitor [2]: > 100 fold

CC1(C)OB(c2ccc(COc3c(C(=O)NCc4ccc(-c5ccccc5)cc4)occc3=O)cc2)OC1(C)C [Compound B18, N-([1,1′-biphenyl]-4-ylmethyl)-4-oxo-3-((4-(4,4,5,5-tetramethyl-1,3,2-dioxaborolan-2-yl)benzyl)oxy)-4H-pyran-2-carboxamide]
fold less effective against MMP-12 than the activated counterpart [1]: > 100 fold | fold-increase of IC50 against MMP-9 over the active inhibitor [2]: > 100 fold

O=c1ccccn1OS(=O)(=O)c1ccc([N+](=O)[O-])cc1 [PZBG-1c, 2-Oxopyridin-1(2H)-yl 4-nitrobenzenesulfonate]
time to complete dissociation upon exposure to H2O2 [3]: < 3 min

O=c1ccccn1OS(=O)(=O)c1ccc([N+](=O)[O-])cc1[N+](=O)[O-] [PZBG-1d, 2-Oxopyridin-1(2H)-yl 2,4-dinitrobenzenesulfonate]
time to complete dissociation upon exposure to H2O2 [3]: < 3 min
